Where a name gives a salt, the structure may show the parent alone.

In the data set the test system is imidazoline receptor I2. The data set is described as follows: Radioligand binding to imidazoline receptor I2 ([3H] Idazoxan, rat brain membranes).
Regarding `Cc1ccc2c(c1)c1c(n2CCc2ccccc2)CCN(C)C1` [1.1.2(1-2)·HCl, 2,8-dimethyl-5-phenethyl-1,2,3,4-tetrahydro-1H-pyrido[4,3-b]indole hydrochloride], the nH is 0.804. To `CN1CCc2c(c3ccccc3n2Cc2ccccc2)C1.Cl` [1.9(1)·HCl, 5-benzyl-2-methyl-2,3,4,5-tetrahydro-1H-pyrido[4,3-b]indole hydrochloride] belongs 0.983; to `CN1CCc2c(c3ccccc3n2Cc2ccccc2)C1` [1.9(1)·1/2NDSA, bis-(5-benzyl-2-methyl-2,3,4,5-tetrahydro-1H-pyrido[4,3-b]indole) naphthalene-1,5-disulfonate], 3.31.
